According to article PMC12358912:
These are yes or no findings as the source states them, for the method shown. Some results given as binding are weak or reduced against the parent protein; the word gives no strength.

Chains of the proteins cited; added tags and fusions are not shown. Lines headed by an entry give the natural chain unless they say otherwise; changes in a name come on top.
UniProt Q14683: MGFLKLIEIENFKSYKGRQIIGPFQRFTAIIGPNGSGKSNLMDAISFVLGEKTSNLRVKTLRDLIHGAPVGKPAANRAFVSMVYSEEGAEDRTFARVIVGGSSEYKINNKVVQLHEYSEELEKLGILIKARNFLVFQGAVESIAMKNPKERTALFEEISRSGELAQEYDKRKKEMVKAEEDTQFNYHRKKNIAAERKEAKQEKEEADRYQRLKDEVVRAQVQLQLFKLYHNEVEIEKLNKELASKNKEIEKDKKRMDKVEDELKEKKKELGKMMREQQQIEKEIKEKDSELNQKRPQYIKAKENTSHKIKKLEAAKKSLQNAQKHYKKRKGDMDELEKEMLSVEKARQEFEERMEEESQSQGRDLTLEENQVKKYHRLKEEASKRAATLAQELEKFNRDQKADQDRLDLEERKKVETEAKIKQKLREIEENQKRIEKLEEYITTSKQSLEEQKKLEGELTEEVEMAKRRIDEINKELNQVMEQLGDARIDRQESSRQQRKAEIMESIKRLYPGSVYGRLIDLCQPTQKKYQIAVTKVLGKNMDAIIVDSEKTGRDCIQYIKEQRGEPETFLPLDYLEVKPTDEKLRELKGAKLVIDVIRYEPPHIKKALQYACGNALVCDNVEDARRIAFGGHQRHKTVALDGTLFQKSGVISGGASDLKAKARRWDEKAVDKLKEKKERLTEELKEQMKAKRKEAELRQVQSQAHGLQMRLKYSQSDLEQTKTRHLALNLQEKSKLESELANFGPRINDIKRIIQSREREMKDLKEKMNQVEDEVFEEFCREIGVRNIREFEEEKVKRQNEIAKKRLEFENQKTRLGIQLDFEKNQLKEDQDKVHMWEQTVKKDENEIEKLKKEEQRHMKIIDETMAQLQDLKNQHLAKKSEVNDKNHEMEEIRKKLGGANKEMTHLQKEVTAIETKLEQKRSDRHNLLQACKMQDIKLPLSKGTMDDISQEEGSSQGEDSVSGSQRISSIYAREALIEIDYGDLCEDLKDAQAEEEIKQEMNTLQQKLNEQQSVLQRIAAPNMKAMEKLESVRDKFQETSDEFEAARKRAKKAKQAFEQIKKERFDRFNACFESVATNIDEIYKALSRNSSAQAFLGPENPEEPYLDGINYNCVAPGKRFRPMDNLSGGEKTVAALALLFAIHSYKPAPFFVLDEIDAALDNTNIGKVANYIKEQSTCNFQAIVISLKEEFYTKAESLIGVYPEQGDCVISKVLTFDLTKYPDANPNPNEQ
UniProt Q6KC79: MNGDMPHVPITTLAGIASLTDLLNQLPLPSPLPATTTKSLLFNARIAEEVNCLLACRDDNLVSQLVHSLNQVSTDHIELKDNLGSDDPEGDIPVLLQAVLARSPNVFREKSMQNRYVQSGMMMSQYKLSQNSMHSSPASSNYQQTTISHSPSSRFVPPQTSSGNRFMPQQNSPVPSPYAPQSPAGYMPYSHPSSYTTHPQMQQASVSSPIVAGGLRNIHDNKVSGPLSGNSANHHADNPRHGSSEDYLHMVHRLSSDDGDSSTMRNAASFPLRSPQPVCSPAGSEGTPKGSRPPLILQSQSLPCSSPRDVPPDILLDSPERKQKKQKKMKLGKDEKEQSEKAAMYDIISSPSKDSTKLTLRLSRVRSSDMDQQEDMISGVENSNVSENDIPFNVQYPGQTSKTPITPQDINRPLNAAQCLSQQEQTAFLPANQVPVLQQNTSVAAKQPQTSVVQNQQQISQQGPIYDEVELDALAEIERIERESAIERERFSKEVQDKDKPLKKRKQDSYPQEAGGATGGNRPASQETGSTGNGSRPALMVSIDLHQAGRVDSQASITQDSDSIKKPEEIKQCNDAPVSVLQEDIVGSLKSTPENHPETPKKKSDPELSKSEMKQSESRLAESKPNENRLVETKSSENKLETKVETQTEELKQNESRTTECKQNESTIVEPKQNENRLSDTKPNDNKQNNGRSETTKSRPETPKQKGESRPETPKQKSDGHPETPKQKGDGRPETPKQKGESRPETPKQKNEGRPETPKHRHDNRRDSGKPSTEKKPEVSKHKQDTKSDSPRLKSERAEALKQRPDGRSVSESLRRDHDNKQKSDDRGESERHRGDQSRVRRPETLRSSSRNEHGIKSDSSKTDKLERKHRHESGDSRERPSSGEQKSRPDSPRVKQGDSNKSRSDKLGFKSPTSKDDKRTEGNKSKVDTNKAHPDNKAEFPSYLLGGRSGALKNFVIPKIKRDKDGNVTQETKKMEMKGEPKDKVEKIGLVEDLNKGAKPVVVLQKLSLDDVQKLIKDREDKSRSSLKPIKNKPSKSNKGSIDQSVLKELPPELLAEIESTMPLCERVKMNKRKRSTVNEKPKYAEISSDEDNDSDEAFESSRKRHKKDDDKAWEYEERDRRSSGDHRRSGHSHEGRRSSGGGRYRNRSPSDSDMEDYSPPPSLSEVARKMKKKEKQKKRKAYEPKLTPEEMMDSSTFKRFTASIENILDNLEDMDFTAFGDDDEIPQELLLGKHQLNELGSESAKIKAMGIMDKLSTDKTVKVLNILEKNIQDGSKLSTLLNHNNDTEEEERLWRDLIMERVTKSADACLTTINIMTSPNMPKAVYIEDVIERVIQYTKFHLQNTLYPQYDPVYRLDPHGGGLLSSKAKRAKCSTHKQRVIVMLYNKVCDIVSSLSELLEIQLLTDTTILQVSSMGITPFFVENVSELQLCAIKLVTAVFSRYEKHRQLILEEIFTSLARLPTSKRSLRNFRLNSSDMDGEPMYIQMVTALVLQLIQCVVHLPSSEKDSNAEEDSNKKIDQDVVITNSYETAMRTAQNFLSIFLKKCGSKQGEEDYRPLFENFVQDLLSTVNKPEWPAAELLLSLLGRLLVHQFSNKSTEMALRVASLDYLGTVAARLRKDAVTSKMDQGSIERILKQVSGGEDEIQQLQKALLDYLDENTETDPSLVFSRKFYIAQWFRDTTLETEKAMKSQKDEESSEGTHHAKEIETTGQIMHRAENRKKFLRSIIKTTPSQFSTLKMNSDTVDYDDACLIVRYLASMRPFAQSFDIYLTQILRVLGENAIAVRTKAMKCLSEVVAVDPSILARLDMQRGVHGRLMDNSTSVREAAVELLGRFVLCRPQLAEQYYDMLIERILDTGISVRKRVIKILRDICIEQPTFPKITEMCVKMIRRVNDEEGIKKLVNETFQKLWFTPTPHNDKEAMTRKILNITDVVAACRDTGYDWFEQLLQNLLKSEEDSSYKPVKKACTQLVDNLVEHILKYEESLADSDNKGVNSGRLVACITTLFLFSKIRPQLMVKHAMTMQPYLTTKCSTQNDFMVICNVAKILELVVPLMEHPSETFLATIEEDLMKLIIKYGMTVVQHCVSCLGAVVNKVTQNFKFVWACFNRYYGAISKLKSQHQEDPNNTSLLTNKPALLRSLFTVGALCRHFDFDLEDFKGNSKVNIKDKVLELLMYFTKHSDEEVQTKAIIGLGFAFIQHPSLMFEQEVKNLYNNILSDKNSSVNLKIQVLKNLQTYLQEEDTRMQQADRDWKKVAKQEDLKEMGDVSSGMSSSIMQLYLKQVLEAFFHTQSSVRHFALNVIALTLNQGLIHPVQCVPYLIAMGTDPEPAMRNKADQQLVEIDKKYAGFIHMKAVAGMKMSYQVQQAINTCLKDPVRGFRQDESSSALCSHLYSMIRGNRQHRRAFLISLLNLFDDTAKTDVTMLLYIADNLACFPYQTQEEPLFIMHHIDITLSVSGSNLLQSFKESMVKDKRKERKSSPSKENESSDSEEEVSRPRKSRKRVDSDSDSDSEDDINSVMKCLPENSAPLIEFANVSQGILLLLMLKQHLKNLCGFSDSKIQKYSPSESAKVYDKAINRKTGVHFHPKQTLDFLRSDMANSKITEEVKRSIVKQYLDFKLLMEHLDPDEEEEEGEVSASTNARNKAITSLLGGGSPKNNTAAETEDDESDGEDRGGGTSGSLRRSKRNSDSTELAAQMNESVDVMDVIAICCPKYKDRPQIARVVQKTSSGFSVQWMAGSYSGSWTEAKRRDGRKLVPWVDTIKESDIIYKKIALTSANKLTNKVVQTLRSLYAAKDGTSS

Molecular target: SMC1/SMC3/SCC1 cohesin Trimer (UniProt Q14683)
Test: mass photometry; in solution; equilibrated mixture of 150 nM cohesin Trimer sample with 150 nM STAG1 and 150 nM NIPBL, without nucleotide or with 2.5 mM ATP or ATPγS; no DNA; both purified

Substance: NIPBL (from UniProt Q6KC79 1-2804)
- binding: binds
